{"source": "PubChem BioAssay AID1259314 (Drosophila RNAi Screening Center, 2017)", "aim": "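Genes whose knock-down alters cell survival under toxic manganese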 (primary screen)", "cell system": "Drosophila S2R+ cells", "reagent": "long dsRNA against Drosophila genes", "time to read-out": "5 days (4 days knock-down, then 1 day metal exposure)", "treatment": "manganese chloride added to 15 mM for 24 hours", "measured": "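Luciferase ATP signal used as a proxy for viable cell number, reported as one averaged z-score per dsRNA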", "scale": "mean ATP z-score: higher = more ATP than the plate average, more viable cells under manganese", "active means": "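a mean ATP z-score past 1.5 in either direction is called active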", "calls": "active = strong ATP change, up or down; inactive = no strong ATP change", "note": "In all, the deposit lists about 3,100 reagents; this is a part drawn at random. 289 of them (9.3%) were called active. 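Active includes both higher and lower ATP than plate average; check the z-score sign for direction.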 Reagents against one gene are numbered here. The record does not give: the amount of reagent."}
{"target":"slv","reagent no.":1,"mean ATP z-score":0.726,"outcome":"inactive"}
{"target":"ort","reagent no.":1,"mean ATP z-score":0.439,"outcome":"inactive"}
{"target":"ort","reagent no.":2,"mean ATP z-score":0.083,"outcome":"inactive"}
{"target":"Oatp58Dc","reagent no.":1,"mean ATP z-score":-1.01,"outcome":"inactive"}
{"target":"Oatp58Dc","reagent no.":2,"mean ATP z-score":1.07,"outcome":"inactive"}
{"target":"SERCA","reagent no.":1,"mean ATP z-score":0.317,"outcome":"inactive"}
{"target":"SERCA","reagent no.":2,"mean ATP z-score":-1.89,"outcome":"active"}
{"target":"CG5715","reagent no.":1,"mean ATP z-score":-0.157,"outcome":"inactive"}
{"target":"CG5715","reagent no.":2,"mean ATP z-score":0.578,"outcome":"inactive"}
{"target":"Appl","reagent no.":1,"mean ATP z-score":1.11,"outcome":"inactive"}
{"target":"Appl","reagent no.":2,"mean ATP z-score":-1.3,"outcome":"inactive"}
{"target":"Prip","reagent no.":1,"mean ATP z-score":1.02,"outcome":"inactive"}
{"target":"Prip","reagent no.":2,"mean ATP z-score":-0.356,"outcome":"inactive"}
{"target":"Toll-9","reagent no.":1,"mean ATP z-score":-1.27,"outcome":"inactive"}
{"target":"CG43795","reagent no.":1,"mean ATP z-score":3.34,"outcome":"active"}
{"target":"CG43795","reagent no.":2,"mean ATP z-score":1.05,"outcome":"inactive"}
{"target":"CG43795","reagent no.":3,"mean ATP z-score":-0.571,"outcome":"inactive"}
{"target":"twz","reagent no.":1,"mean ATP z-score":0.507,"outcome":"inactive"}
{"target":"twz","reagent no.":2,"mean ATP z-score":0.773,"outcome":"inactive"}
{"target":"stan","reagent no.":1,"mean ATP z-score":0.39,"outcome":"inactive"}
{"target":"stan","reagent no.":2,"mean ATP z-score":-0.508,"outcome":"inactive"}
{"target":"Stt3A","reagent no.":1,"mean ATP z-score":-0.456,"outcome":"inactive"}
{"target":"Stt3A","reagent no.":2,"mean ATP z-score":1,"outcome":"inactive"}
{"target":"Oatp58Da","reagent no.":1,"mean ATP z-score":-1.52,"outcome":"active"}
{"target":"Oatp58Da","reagent no.":2,"mean ATP z-score":-0.19,"outcome":"inactive"}
{"target":"Cad86C","reagent no.":1,"mean ATP z-score":0.0165,"outcome":"inactive"}
{"target":"Cad86C","reagent no.":2,"mean ATP z-score":-1.48,"outcome":"inactive"}
{"target":"Cad86C","reagent no.":3,"mean ATP z-score":1.3,"outcome":"inactive"}
{"target":"CG44098","reagent no.":1,"mean ATP z-score":-0.908,"outcome":"inactive"}
{"target":"CG44098","reagent no.":2,"mean ATP z-score":0.587,"outcome":"inactive"}
{"target":"CG44098","reagent no.":3,"mean ATP z-score":-1.13,"outcome":"inactive"}
{"target":"ppk","reagent no.":1,"mean ATP z-score":-0.457,"outcome":"inactive"}
{"target":"ppk","reagent no.":2,"mean ATP z-score":-0.713,"outcome":"inactive"}
{"target":"DAT","reagent no.":1,"mean ATP z-score":-0.0271,"outcome":"inactive"}
{"target":"CG11425","reagent no.":1,"mean ATP z-score":-1.09,"outcome":"inactive"}
{"target":"CG11425","reagent no.":2,"mean ATP z-score":-1.49,"outcome":"inactive"}
{"target":"Atg9","reagent no.":1,"mean ATP z-score":-0.0912,"outcome":"inactive"}
{"target":"Atg9","reagent no.":2,"mean ATP z-score":0.0743,"outcome":"inactive"}
{"target":"Ir75b","reagent no.":1,"mean ATP z-score":-0.573,"outcome":"inactive"}
{"target":"Gle1","reagent no.":1,"mean ATP z-score":0.162,"outcome":"inactive"}
{"target":"Gle1","reagent no.":2,"mean ATP z-score":0.684,"outcome":"inactive"}
{"target":"ClC-b","reagent no.":1,"mean ATP z-score":-0.199,"outcome":"inactive"}
{"target":"Osi6","reagent no.":1,"mean ATP z-score":-1.59,"outcome":"active"}
{"target":"Osi6","reagent no.":2,"mean ATP z-score":-0.83,"outcome":"inactive"}
{"target":"CG15221","reagent no.":1,"mean ATP z-score":-0.0573,"outcome":"inactive"}
{"target":"CG10345","reagent no.":1,"mean ATP z-score":-0.582,"outcome":"inactive"}
{"target":"rho-7","reagent no.":1,"mean ATP z-score":0.904,"outcome":"inactive"}

Reformatted: entries from further up.
target,reagent no.,mean ATP z-score,outcome
CG43795,3,-0.571,inactive
twz,1,0.507,inactive
twz,2,0.773,inactive
